Taken from: PubChem BioAssay AID652259 (Drosophila RNAi Screening Center, 2013)
The screen tested about 22,000 reagents; shown is an unselected part of those that have a named target and a result. Over the whole deposit, 233 (1.1%) got an active call. 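Light values are raw, unnormalised plate reads; the ratio scores behind the reporter calls were not deposited.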 Names joined by + are all predicted targets of the reagent. No sequences are given here. The record does not give: the amount of reagent, the time to read-out, the dose of the treatment.

Assay: 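Genome-wide hunt for genes that control Wingless pathway activity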 (primary screen)
Cells: Drosophila clone 8 imaginal disc epithelial cells
Knock-down reagent: long dsRNA against Drosophila genes
Challenge: pathway stimulated by co-transfected Wingless expression plasmid
Measured: 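Dual luciferase reads per well after Wingless plasmid stimulation: reporter firefly light and Renilla control light; activity is firefly divided by Renilla, a ratio not deposited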
Direction: firefly reporter light: higher = more Wg reporter light, before normalisation; Renilla control light: higher = more transfected or surviving cells
Hit rule: 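Strong candidates differ from their plate mean by at least two out of four per-plate statistical tests; weak candidates meet just one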
Calls: active = candidate regulator (raises or lowers reporter); inactive = not a candidate

{"Gene": "CG11695 (GeneID 32106)", "DRSC id": "DRSC19416", "firefly reporter light, replicate 1": 26960, "Renilla control light, replicate 1": 7499, "Call": "inactive"}
{"Gene": "wash (GeneID 36311)", "DRSC id": "DRSC06302", "firefly reporter light, replicate 1": 8312, "Renilla control light, replicate 1": 2188, "Call": "inactive"}
{"Gene": "CG11279 (GeneID 39486)", "DRSC id": "DRSC09837", "firefly reporter light, replicate 1": 8069, "Renilla control light, replicate 1": 2886, "Call": "inactive"}
{"Gene": "heix (GeneID 34961)", "DRSC id": "DRSC03542", "firefly reporter light, replicate 1": 3619, "Renilla control light, replicate 1": 1901, "Call": "inactive"}
{"Gene": "jv (GeneID 318008)", "DRSC id": "DRSC08831", "firefly reporter light, replicate 1": 2073, "Renilla control light, replicate 1": 842, "Call": "inactive"}
{"Gene": "jv (GeneID 318008)", "DRSC id": "DRSC08832", "firefly reporter light, replicate 1": 2652, "Renilla control light, replicate 1": 1216, "Call": "inactive"}
{"Gene": "COX1 (retired record) (GeneID 192469)", "DRSC id": "DRSC21275", "firefly reporter light, replicate 1": 11319, "Renilla control light, replicate 1": 8256, "Call": "inactive"}
{"Gene": "COX7B (GeneID 50266)", "DRSC id": "DRSC10895", "firefly reporter light, replicate 1": 5670, "Renilla control light, replicate 1": 2314, "Call": "inactive"}
{"Gene": "CG5828 (GeneID 33742)", "DRSC id": "DRSC02900", "firefly reporter light, replicate 1": 2540, "firefly reporter light, replicate 2": 5968, "Renilla control light, replicate 1": 876, "Renilla control light, replicate 2": 2632, "Call": "inactive"}
{"Gene": "MFS15 (GeneID 37168)", "DRSC id": "DRSC06523", "firefly reporter light, replicate 1": 7189, "Renilla control light, replicate 1": 2225, "Call": "inactive"}
{"Gene": "lncRNA:CR9284 (GeneID 12798136)", "DRSC id": "DRSC03899", "firefly reporter light, replicate 1": 22532, "Renilla control light, replicate 1": 12085, "Call": "inactive"}
{"Gene": "lncRNA:CR9284 (GeneID 12798136)", "DRSC id": "DRSC04536", "firefly reporter light, replicate 1": 11664, "Renilla control light, replicate 1": 3165, "Call": "inactive"}
{"Gene": "CG31820 (GeneID 318961)", "DRSC id": "DRSC21318", "firefly reporter light, replicate 1": 8.56e5, "firefly reporter light, replicate 2": 8.30e5, "Renilla control light, replicate 1": 5.29e5, "Renilla control light, replicate 2": 3.67e5, "Call": "inactive"}
{"Gene": "ric8b + ric8a", "DRSC id": "DRSC18104", "firefly reporter light, replicate 1": 19897, "Renilla control light, replicate 1": 9240, "Call": "inactive"}
{"Gene": "CG10274 (GeneID 38716)", "DRSC id": "DRSC09716", "firefly reporter light, replicate 1": 4228, "Renilla control light, replicate 1": 1552, "Call": "inactive"}
{"Gene": "CG31674 (GeneID 318878)", "DRSC id": "DRSC03208", "firefly reporter light, replicate 1": 1962, "firefly reporter light, replicate 2": 9610, "Renilla control light, replicate 1": 890, "Renilla control light, replicate 2": 4368, "Call": "inactive"}
{"Gene": "CG15653 (GeneID 37388)", "DRSC id": "DRSC04244", "firefly reporter light, replicate 1": 2824, "firefly reporter light, replicate 2": 8714, "Renilla control light, replicate 1": 924, "Renilla control light, replicate 2": 4204, "Call": "inactive"}
{"Gene": "Nedd8 (GeneID 35151)", "DRSC id": "DRSC02092", "firefly reporter light, replicate 1": 2433, "firefly reporter light, replicate 2": 5047, "Renilla control light, replicate 1": 723, "Renilla control light, replicate 2": 2800, "Call": "inactive"}
{"Gene": "CG9864 (GeneID 37287)", "DRSC id": "DRSC07346", "firefly reporter light, replicate 1": 4816, "Renilla control light, replicate 1": 1755, "Call": "inactive"}
{"Gene": "CG14989 (GeneID 38485)", "DRSC id": "DRSC08448", "firefly reporter light, replicate 1": 6549, "Renilla control light, replicate 1": 1996, "Call": "inactive"}
{"Gene": "SmydA-6 (GeneID 36917)", "DRSC id": "DRSC07341", "firefly reporter light, replicate 1": 6736, "Renilla control light, replicate 1": 1808, "Call": "inactive"}
{"Gene": "Ote (GeneID 37090)", "DRSC id": "DRSC07498", "firefly reporter light, replicate 1": 16611, "Renilla control light, replicate 1": 4343, "Call": "inactive"}
{"Gene": "aralar1 (GeneID 43616)", "DRSC id": "DRSC13987", "firefly reporter light, replicate 1": 2989, "Renilla control light, replicate 1": 1025, "Call": "inactive"}
{"Gene": "aralar1 (GeneID 43616)", "DRSC id": "DRSC16901", "firefly reporter light, replicate 1": 1488, "firefly reporter light, replicate 2": 5076, "Renilla control light, replicate 1": 713, "Renilla control light, replicate 2": 1162, "Call": "inactive"}
{"Gene": "CG7409 (GeneID 38870)", "DRSC id": "DRSC10842", "firefly reporter light, replicate 1": 1990, "firefly reporter light, replicate 2": 7353, "Renilla control light, replicate 1": 1274, "Renilla control light, replicate 2": 2898, "Call": "inactive"}
{"Gene": "Rassf (GeneID 42734)", "DRSC id": "DRSC15612", "firefly reporter light, replicate 1": 2396, "firefly reporter light, replicate 2": 5161, "Renilla control light, replicate 1": 1408, "Renilla control light, replicate 2": 2153, "Call": "inactive"}
{"Gene": "SelG (GeneID 32149)", "DRSC id": "DRSC19808", "firefly reporter light, replicate 1": 3307, "firefly reporter light, replicate 2": 10354, "Renilla control light, replicate 1": 1061, "Renilla control light, replicate 2": 3293, "Call": "inactive"}
{"Gene": "E(spl)m6-BFM (GeneID 43159)", "DRSC id": "DRSC16993", "firefly reporter light, replicate 1": 20657, "Renilla control light, replicate 1": 18096, "Call": "inactive"}
{"Gene": "Taf10b + Taf10", "DRSC id": "DRSC00793", "firefly reporter light, replicate 1": 5170, "firefly reporter light, replicate 2": 7143, "Renilla control light, replicate 1": 876, "Renilla control light, replicate 2": 1520, "Call": "inactive"}
{"Gene": "CG31740 (GeneID 261618)", "DRSC id": "DRSC01619", "firefly reporter light, replicate 1": 21650, "Renilla control light, replicate 1": 12983, "Call": "inactive"}
{"Gene": "Rbp1-like (GeneID 32293)", "DRSC id": "DRSC19828", "firefly reporter light, replicate 1": 28130, "Renilla control light, replicate 1": 13248, "Call": "inactive"}
{"Gene": "Rbp1-like (GeneID 32293)", "DRSC id": "DRSC21938", "firefly reporter light, replicate 1": 5.63e5, "firefly reporter light, replicate 2": 5.87e5, "Renilla control light, replicate 1": 2.27e5, "Renilla control light, replicate 2": 2.47e5, "Call": "inactive"}
{"Gene": "Rbp1-like (GeneID 32293)", "DRSC id": "DRSC22075", "firefly reporter light, replicate 1": 6.36e5, "firefly reporter light, replicate 2": 7.10e5, "Renilla control light, replicate 1": 1.62e5, "Renilla control light, replicate 2": 1.58e5, "Call": "inactive"}

Looked up above:
Result for CG15653 (GeneID 37388) [DRSC04244] under “firefly reporter light, replicate 2”: 8714
For “Call”, wash (GeneID 36311) [DRSC06302] is entered as inactive
Under “firefly reporter light, replicate 1”, jv (GeneID 318008) [DRSC08832] is entered as 2652
